From patent publication US20150044346A1, “USE OF OXAZOLINES AS AROMA/FLAVOUR PRECURSORS” (NESTEC S.A., priority 2012, published 2015) come the findings set out here.

The series is described as follows: In-mouth release from spiked chocolate during chewing, PTR-MS of nose space. The note with it: spiked chocolate 2 g, test person; FIG. 5.

With `CC(C)CC=O` [3-methylbutanal], the “ion m/z 87 in nose space during chewing of spiked chocolate (PTR-MS)” value is listed as “clear increase”.

For the compound `CCC(C)C=O` (centres unmarked) [2-methylbutanal], the “ion m/z 87 in nose space during chewing of spiked chocolate (PTR-MS)” value is reported as “clear increase”.
